PubChem BioAssay AID1053208 | Peter MacCallum Cancer Centre, 2014

- Screen: 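Synthetic lethal interactions between gene loss and doxorubicin in osteosarcoma cells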 (primary screen)
- Cells: mouse osteosarcoma cells, early-passage culture from an engineered mouse model of fibroblastic bone tumour
- Reagents: siRNA pool against mouse genes, 40 nM
- Time to read-out: about 120 h (48 h before drug, then 72 h with drug)
- Treatment: doxorubicin 100 nM for 72 h, roughly 30-40% inhibitory dose
- Detection: 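Luminescent ATP signal taken as viability with or without 100 nM doxorubicin for 72 h; mean of two wells set against non-targeting siRNA and turned into robust z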
- Scale: viability z-score with doxorubicin: higher = more viable cells under doxorubicin; viability z-score without drug: higher = more viable cells with knock-down alone
- Active means: 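Called active if knock-down leaves viability unchanged without drug (z within -2 to 2) but lowers it with doxorubicin (z at or under -2)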
The deposit covers about 17,000 reagents; below is a part drawn at random. In the full data, 788 (4.7%) got an active call. 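Calls rest on z-score classes alone; an extra cut-off of viability at most 70% of control was not applied to them.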 A number with no mark means an inactive call. A reagent listed more than once was tested more than once; the source does not tell the runs apart. Further read-outs or replicates are left out here.

Depletion of Calhm5 (calcium homeostasis modulator family member 5) came out at: combined z-score class no change with or without drug; viability z-score with doxorubicin 1.8; viability z-score without drug -0.51.
Ifnab (interferon alpha B) showed combined z-score class no change with or without drug; viability z-score with doxorubicin -0.9; viability z-score without drug -0.67.
Knock-down of Pdxdc1 (pyridoxal-dependent decarboxylase domain containing 1) gave: combined z-score class no change with or without drug; viability z-score with doxorubicin 1.46; viability z-score without drug 0.34.
With knock-down of Or1j14 (olfactory receptor family 1 subfamily J member 14), the record shows combined z-score class no change with or without drug; viability z-score with doxorubicin -0.79; viability z-score without drug -0.84.
Dbi (diazepam binding inhibitor) scored combined z-score class no change with or without drug; viability z-score with doxorubicin 0.79; viability z-score without drug 0.17.
Against Pcdhb4 (protocadherin beta 4) the deposit lists combined z-score class no change with or without drug; viability z-score with doxorubicin -1.24; viability z-score without drug 0.84.
With knock-down of Grk2 (G protein-coupled receptor kinase 2), the screen gave combined z-score class no change with or without drug; viability z-score with doxorubicin 0; viability z-score without drug -0.67.
Against Grk2 (G protein-coupled receptor kinase 2) the deposit lists combined z-score class no change with or without drug; viability z-score with doxorubicin -0.11; viability z-score without drug -1.18.
Against 4930503E14Rik (RIKEN cDNA 4930503E14 gene) the deposit lists combined z-score class low cell count with doxorubicin only (active); viability z-score with doxorubicin -2.25; viability z-score without drug -1.01.
For Mea1 (male enhanced antigen 1) the deposit lists combined z-score class no change with or without drug; viability z-score with doxorubicin 0.34; viability z-score without drug 1.01.
Knock-down of Nr2f6 (nuclear receptor subfamily 2, group F, member 6) resulted in: combined z-score class no change with or without drug; viability z-score with doxorubicin 0.67; viability z-score without drug 1.69.
Against Ankrd2 (ankyrin repeat domain 2) the deposit lists combined z-score class low cell count with doxorubicin only (active); viability z-score with doxorubicin -2.02; viability z-score without drug -1.52.
Silencing of Sema6c gave: combined z-score class no change with or without drug; viability z-score with doxorubicin -0.9; viability z-score without drug -0.17.
Depletion of Rsrp1 (arginine/serine rich protein 1) came out at: combined z-score class no change with or without drug; viability z-score with doxorubicin 1.35; viability z-score without drug 1.18.
After knock-down of Lamtor1 (late endosomal/lysosomal adaptor, MAPK and MTOR activator 1), the record shows combined z-score class no change with or without drug; viability z-score with doxorubicin -1.8; viability z-score without drug -0.51.
For Kcnj12, the values are combined z-score class no change with or without drug; viability z-score with doxorubicin -1.46; viability z-score without drug -1.52.
Rnf122 (ring finger protein 122) scored combined z-score class low cell count with doxorubicin only (active); viability z-score with doxorubicin -3.15; viability z-score without drug 0.17.
Mfn1 (mitofusin 1) scored combined z-score class low cell count with doxorubicin only (active); viability z-score with doxorubicin -2.25; viability z-score without drug -0.17.
Vmn1r233 (vomeronasal 1 receptor 233) showed combined z-score class high cell count without drug only; viability z-score with doxorubicin -0.45; viability z-score without drug 3.2.
For Or8b12 (olfactory receptor family 8 subfamily B member 12) the deposit lists combined z-score class no change with or without drug; viability z-score with doxorubicin 0; viability z-score without drug -0.51.
Depletion of Zfp740 (zinc finger protein 740) came out at: combined z-score class no change with or without drug; viability z-score with doxorubicin -0.22; viability z-score without drug 0.34.
Against Sdr9c7 (4short chain dehydrogenase/reductase family 9C, member 7), the entry reads combined z-score class high cell count without drug only; viability z-score with doxorubicin 1.91; viability z-score without drug 3.2.
Knock-down of Glis2 (GLIS family zinc finger 2) gave: combined z-score class no change with or without drug; viability z-score with doxorubicin 0.34; viability z-score without drug 0.
Depletion of Smndc1 (survival motor neuron domain containing 1) came out at: combined z-score class no change with or without drug; viability z-score with doxorubicin 1.46; viability z-score without drug 0.67.
After knock-down of Ppil2 (peptidylprolyl isomerase (cyclophilin)-like 2) the results were combined z-score class no change with or without drug; viability z-score with doxorubicin 0.45; viability z-score without drug 0.51.
Rnf146 (ring finger protein 146) showed combined z-score class no change with or without drug; viability z-score with doxorubicin 0; viability z-score without drug 0.67.
Silencing of Eva1b (eva-1 homolog B) came out at: combined z-score class no change with or without drug; viability z-score with doxorubicin 1.24; viability z-score without drug 1.18.
With knock-down of Tfap2c (transcription factor AP-2, gamma) the results were combined z-score class no change with or without drug; viability z-score with doxorubicin 1.57; viability z-score without drug 1.85.

Entries above marked active (4):
4930503E14Rik (RIKEN cDNA 4930503E14 gene): combined z-score class = low cell count with doxorubicin only (active); viability z-score with doxorubicin = -2.25; viability z-score without drug = -1.01
Ankrd2 (ankyrin repeat domain 2): combined z-score class = low cell count with doxorubicin only (active); viability z-score with doxorubicin = -2.02; viability z-score without drug = -1.52
Rnf122 (ring finger protein 122): combined z-score class = low cell count with doxorubicin only (active); viability z-score with doxorubicin = -3.15; viability z-score without drug = 0.17
Mfn1 (mitofusin 1): combined z-score class = low cell count with doxorubicin only (active); viability z-score with doxorubicin = -2.25; viability z-score without drug = -0.17
